Reference: PMC9959817 (Molecules, 2023)

Legend:
[1] = general procedure: Fmoc solid-phase peptide synthesis in flow; TentaGel S NH2 (0.25 mmol/g) with HMPA linker; also AM-PS, TentaGel HL NH2 and ChemMatrix in optimisation; HCTU; PyAOP/sym-collidine for Cys and His; conditions: for step yield: purification step
[2] = general procedure: Fmoc solid-phase peptide synthesis in flow; TentaGel S NH2; HCTU; PyAOP/sym-collidine for Cys and His; conditions: whole synthesis, scale 0.15 mmol
[3] = whole synthesis, 214 nm, scale of the general procedure 0.15 mmol (flow), 0.1 mmol (batch)
[4] = whole synthesis, analytical RP-HPLC (214 nm), scale of the general procedure 0.15 mmol (flow), 0.1 mmol (batch)
[5] = whole synthesis, scale of the general procedure 0.15 mmol (flow), 0.1 mmol (batch)

Substance	step yield [1]	crude mass ([1]; whole synthesis)	isolated mass ([1]; whole synthesis)	final HPLC purity [1, 3]	crude HPLC purity [1, 4]	crude yield [1, 5]	final HPLC purity [1, 4]	crude mass [2]	crude HPLC purity [1, 3]	isolated yield ([1]; whole synthesis, based on initial resin loading, scale of the general procedure 0.15 mmol (flow), 0.1 mmol (batch))	crude yield ([1]; whole synthesis, scale of the general procedure 0.15 mmol (flow), 0.1 mmol (batch), run 1)	crude yield ([1]; whole synthesis, scale of the general procedure 0.15 mmol (flow), 0.1 mmol (batch), run 2)
PEPTIDE1{R.K.C.N.F.L.C.K.L.K.E.K.L.R.T.V.I.T.S.H.I.D.K.V.L.R.P.Q.G}$PEPTIDE1,PEPTIDE1,3:R3-7:R3|PEPTIDE1,PEPTIDE1,1:R1-29:R2$$$V2.0	12.1%	68 mg	8.2 mg	97.8%	18.6%	13.3%	–	–	–	–	–	–
PEPTIDE1{R.K.K.N.F.L.E.K.L.K.E.K.L.R.T.V.I.T.S.H.I.D.K.V.L.R.P.Q.G}$PEPTIDE1,PEPTIDE1,3:R3-7:R3$$$V2.0	yield 9.1%	373.4 mg	33.97 mg	–	43.8%	67.7%	98.8%	–	–	–	–	–
PEPTIDE1{R.K.K.N.F.L.D.K.L.K.E.K.L.R.T.V.I.T.S.H.I.D.K.V.L.R.P.Q.G}$PEPTIDE1,PEPTIDE1,3:R3-7:R3$$$V2.0	yield 10.6%	296.4 mg	31.42 mg	–	51%	yield 57%	99.1%	–	–	–	–	–
PEPTIDE1{R.K.C.N.F.L.C.K.L.K.E.K.L.R.T.V.I.T.S.H.I.D.K.V.L.R.P.Q.G}$PEPTIDE1,PEPTIDE1,7:R3-3:R3$$$V2.0	52%	–	148.15 mg	–	–	55%	95%	284.9 mg	55.6%	28.6%	–	–
PEPTIDE1{R.K.D.N.F.L.[Dab].K.L.K.E.K.L.R.T.V.I.T.S.H.I.D.K.V.L.R.P.Q.G}$PEPTIDE1,PEPTIDE1,3:R3-7:R3$$$V2.0	yield 7.58%	186.92 mg	14.17 mg	–	48%	36.5%	99%	–	–	–	–	–
PEPTIDE1{R.K.A.N.F.L.A.K.L.K.E.K.L.R.T.V.I.T.S.H.I.D.K.V.L.R.P.Q.G}$$$$V2.0	52%	–	212.35 mg	–	–	81%	9 8.2%	408.36 mg	51.6%	–	–	–
PEPTIDE1{R.K.E.N.F.L.K.K.L.K.E.K.L.R.T.V.I.T.S.H.I.D.K.V.L.R.P.Q.G}$PEPTIDE1,PEPTIDE1,3:R3-7:R3$$$V2.0	11.2%	363.8 mg	40.75 mg	–	54.6%	65.6%	95.8%	–	–	–	–	–
PEPTIDE1{R.K.E.N.F.L.[Dab].K.L.K.E.K.L.R.T.V.I.T.S.H.I.D.K.V.L.R.P.Q.G}$PEPTIDE1,PEPTIDE1,3:R3-7:R3$$$V2.0	yield 7%	191.2 mg	13.38 mg	–	51%	yield 37%	95.1%	–	–	–	–	–
PEPTIDE1{R.K.D.N.F.L.K.K.L.K.E.K.L.R.T.V.I.T.S.H.I.D.K.V.L.R.P.Q.G}$PEPTIDE1,PEPTIDE1,3:R3-7:R3$$$V2.0	10.8%	301.5 mg	32.56 mg	–	44.6%	–	98.1%	–	–	–	58.4%	yield 37.8%

HELM strings list residues between dots; [ac] is acetyl, [am] amide, other brackets name non-standard units.
